PubChem BioAssay AID504793, Drosophila RNAi Screening Center – 2011
Screen: 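Whole-genome screen for parts of the DNA damage checkpoint at G2/M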 (primary screen). Cells: Drosophila S2R+ cells. Reagents: long dsRNA against Drosophila genes, about 0.25 µg dsRNA per well. Timing: 4 days of dsRNA, then 4 hours of drug before read-out. Treatment: doxorubicin 0.5 µM for 4 hours to cause double-strand breaks, in cells also given a low, harmless dose of dsRNA against nbs to sensitise the assay. Measured: 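Per-well count of mitotic cells stained for phospho-histone H3 after doxorubicin exposure, used as mitotic index; counts are raw and not normalised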. Reading the numbers: mitotic cells: higher = more cells in mitosis, weaker G2 arrest. Rule for the call: 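a call needs confirmation in secondary tests, with other dsRNAs and a check of mitotic timing without damage, not just a high primary count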. Meaning of the calls: active = confirmed in follow-up tests; inactive = not confirmed.
In all, the deposit lists about 23,000 reagents; this is a random part of those with a known target gene and a result. Over the whole deposit, 62 (0.27%) got an active call. 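Calls come from follow-up tests whose scores are not deposited, so confirmed genes may have low counts here; counts are not normalised per plate.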 Raw values vary from plate to plate and are shown uncorrected. Reagents against one gene are numbered here. A plus sign joins genes that one reagent is predicted to hit.

Target gene | reagent | mitotic cells, replicate 1 | Call
CG15890 | 1 | 15 | inactive
Sf3a1 (Splicing factor 3a subunit 1) | 1 | 5 | inactive
CG11349 | 1 | 4 | inactive
CG11349 | 2 | 9 | inactive
Syx5 (Syntaxin 5) | 1 | 11 | inactive
CG2765 | 1 | 2 | inactive
Drsl1 (Drosomycin-like 1) | 1 | 10 | inactive
CG15293 | 1 | 5 | inactive
CG12769 | 1 | 2 | inactive
CG10194 | 1 | 4 | inactive
vap (vacuolar peduncle) | 1 | 8 | inactive
ord (orientation disruptor) | 1 | 4 | inactive
Ugt303B2 (UDP-glycosyltransferase family 303 member B2) | 1 | 7 | inactive
Ugt303B2 (UDP-glycosyltransferase family 303 member B2) | 2 | 9 | inactive
CG3927 + nsr | 1 | 9 | inactive
RhoGAP100F (Rho GTPase activating protein at 100F) | 1 | 10 | inactive
RhoGAP100F (Rho GTPase activating protein at 100F) | 2 | 8 | inactive
Sfmbt (Scm-related gene containing four mbt domains) | 1 | 8 | inactive
Sfmbt (Scm-related gene containing four mbt domains) | 2 | 11 | inactive
ttm2 (tiny tim 2) | 1 | 12 | inactive
CG33235 | 1 | 11 | inactive
Spn53F (Serpin 53F) | 1 | 2 | inactive
CG2701 | 1 | 7 | inactive
CG10280 | 1 | 7 | inactive
CG10280 | 2 | 6 | inactive
CG9921 | 1 | 13 | inactive
CG31797 | 1 | 9 | inactive
CG31797 | 2 | 3 | inactive
CG15422 | 1 | 3 | inactive
CG15422 | 2 | 7 | inactive
CecC (Cecropin C) | 1 | 9 | inactive
app (approximated) | 1 | 17 | inactive
app (approximated) | 2 | 9 | inactive
app (approximated) | 3 | 1 | inactive
app (approximated) | 4 | 5 | inactive
fid (fire dancer) | 1 | 4 | inactive
fid (fire dancer) | 2 | 13 | inactive
fid (fire dancer) | 3 | 19 | inactive
fid (fire dancer) | 4 | 3 | inactive
alpha-Man-Ic (alpha-Mannosidase class I c) | 1 | 5 | inactive
alpha-Man-Ic (alpha-Mannosidase class I c) | 2 | 4 | inactive
Ostgamma (Oligosaccharide transferase gamma subunit) | 1 | 10 | inactive
Edc3 (Enhancer of decapping 3) | 1 | 4 | inactive
Edc3 (Enhancer of decapping 3) | 2 | 10 | inactive
Rh7 (Rhodopsin 7) | 1 | 5 | inactive
Rh7 (Rhodopsin 7) | 2 | 5 | inactive
bi (bifid) | 1 | 8 | inactive
bi (bifid) | 2 | 5 | inactive
Secp43 (tRNA Selenocysteine associated protein) | 1 | 7 | inactive
Secp43 (tRNA Selenocysteine associated protein) | 2 | 10 | inactive
a10 (antennal protein 10) | 1 | 5 | inactive
CG31528 | 1 | 6 | inactive
CG7352 | 1 | 7 | inactive
CG32647 | 1 | 21 | inactive
CG32647 | 2 | 7 | inactive
CG13060 | 1 | 7 | inactive
CG13060 | 2 | 4 | inactive
CG12857 | 1 | 4 | inactive
MstProx | 1 | 14 | inactive
MstProx | 2 | 7 | inactive
meigo (medial glomeruli) | 1 | 9 | inactive
meigo (medial glomeruli) | 2 | 2 | inactive
NimB1 (Nimrod B1) | 1 | 5 | inactive
Hcs (Holocarboxylase synthetase) | 1 | 7 | inactive
Hcs (Holocarboxylase synthetase) | 2 | 4 | inactive
CG4914 | 1 | 2 | inactive
CG14362 | 1 | 5 | inactive
RpS2 (Ribosomal protein S2) | 1 | 3 | inactive
RpS2 (Ribosomal protein S2) | 2 | 9 | inactive
CG15739 | 1 | 15 | inactive
CG15739 | 2 | 7 | inactive

No new results follow: entries from further up.
Target gene | reagent | mitotic cells, replicate 1 | Call
CG11349 | 2 | 9 | inactive
Syx5 (Syntaxin 5) | 1 | 11 | inactive
CG2765 | 1 | 2 | inactive
Drsl1 (Drosomycin-like 1) | 1 | 10 | inactive
CG15293 | 1 | 5 | inactive

More records follow:
Target gene | reagent | mitotic cells, replicate 1 | Call
SmF (Small ribonucleoprotein particle protein SmF) | 1 | 4 | inactive
SmF (Small ribonucleoprotein particle protein SmF) | 2 | – | inactive
CG3982 | 1 | 21 | inactive
CG3982 | 2 | 4 | inactive
qkr58E-1 (quaking related 58E-1) | 1 | 2 | inactive
qkr58E-1 (quaking related 58E-1) | 2 | 3 | inactive
Map205 (Microtubule-associated protein 205) | 1 | 5 | inactive
Map205 (Microtubule-associated protein 205) | 2 | 6 | inactive
CG13901 | 1 | 9 | inactive
Lk6 (Lk6 kinase) | 1 | 2 | inactive
Lk6 (Lk6 kinase) | 2 | 6 | inactive
Lk6 (Lk6 kinase) | 3 | 6 | inactive
CG34047 (retired record) | 1 | 18 | inactive
CG34047 (retired record) | 2 | 4 | inactive
Polr2A (RNA polymerase II subunit A) | 1 | 20 | active
Polr2A (RNA polymerase II subunit A) | 2 | 14 | inactive
CG6729 | 1 | 12 | inactive
CG6729 | 2 | 9 | inactive
CG6729 | 3 | 11 | inactive
CG32087 | 1 | 12 | inactive
CG32087 | 2 | 5 | inactive
CG7386 | 1 | 5 | inactive
CG7386 | 2 | 2 | inactive
CG7943 | 1 | 5 | inactive
CG16787 | 1 | 5 | inactive
CG32651 | 1 | 4 | inactive
CG13131 | 1 | 12 | inactive
CG15140 | 1 | 6 | inactive
Dsor1 (Downstream of raf1) | 1 | 5 | inactive
Dsor1 (Downstream of raf1) | 2 | 4 | inactive
E(spl)malpha-BFM (Enhancer of split malpha, Bearded family member) | 1 | 8 | inactive
E(spl)malpha-BFM (Enhancer of split malpha, Bearded family member) | 2 | 11 | inactive
crim (crimpled) | 1 | 10 | inactive
alpha-Catr (alpha-catenin related) | 1 | 5 | inactive
alpha-Catr (alpha-catenin related) | 2 | 4 | inactive
AcCoAS (Acetyl Coenzyme A synthase) | 1 | 13 | inactive
AcCoAS (Acetyl Coenzyme A synthase) | 2 | 10 | inactive
AcCoAS (Acetyl Coenzyme A synthase) | 3 | 11 | inactive
AcCoAS (Acetyl Coenzyme A synthase) | 4 | 8 | inactive
